From patent US20130184211A1
No constants are given. Whether binding was seen depends on the method and setting. A result given as binding can be weak or reduced; the word gives no strength.

Amino acid sequences for entries named in this document (tags omitted). A change or cut given only in a name is not applied to a line headed by its entry.
UniProt O95750: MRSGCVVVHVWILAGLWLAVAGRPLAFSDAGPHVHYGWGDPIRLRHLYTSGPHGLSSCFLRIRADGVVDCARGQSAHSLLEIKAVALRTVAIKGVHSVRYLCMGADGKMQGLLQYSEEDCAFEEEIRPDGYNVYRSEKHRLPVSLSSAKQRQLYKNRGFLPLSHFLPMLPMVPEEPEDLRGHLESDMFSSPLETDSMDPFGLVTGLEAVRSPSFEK
UniProt Q9NSA1: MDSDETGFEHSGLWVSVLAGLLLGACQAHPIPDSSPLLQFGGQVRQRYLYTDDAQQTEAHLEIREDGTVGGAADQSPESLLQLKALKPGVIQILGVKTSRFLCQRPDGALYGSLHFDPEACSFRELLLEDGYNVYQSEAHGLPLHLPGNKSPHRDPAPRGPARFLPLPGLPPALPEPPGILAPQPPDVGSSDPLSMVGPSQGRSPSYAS
UniProt Q99N32: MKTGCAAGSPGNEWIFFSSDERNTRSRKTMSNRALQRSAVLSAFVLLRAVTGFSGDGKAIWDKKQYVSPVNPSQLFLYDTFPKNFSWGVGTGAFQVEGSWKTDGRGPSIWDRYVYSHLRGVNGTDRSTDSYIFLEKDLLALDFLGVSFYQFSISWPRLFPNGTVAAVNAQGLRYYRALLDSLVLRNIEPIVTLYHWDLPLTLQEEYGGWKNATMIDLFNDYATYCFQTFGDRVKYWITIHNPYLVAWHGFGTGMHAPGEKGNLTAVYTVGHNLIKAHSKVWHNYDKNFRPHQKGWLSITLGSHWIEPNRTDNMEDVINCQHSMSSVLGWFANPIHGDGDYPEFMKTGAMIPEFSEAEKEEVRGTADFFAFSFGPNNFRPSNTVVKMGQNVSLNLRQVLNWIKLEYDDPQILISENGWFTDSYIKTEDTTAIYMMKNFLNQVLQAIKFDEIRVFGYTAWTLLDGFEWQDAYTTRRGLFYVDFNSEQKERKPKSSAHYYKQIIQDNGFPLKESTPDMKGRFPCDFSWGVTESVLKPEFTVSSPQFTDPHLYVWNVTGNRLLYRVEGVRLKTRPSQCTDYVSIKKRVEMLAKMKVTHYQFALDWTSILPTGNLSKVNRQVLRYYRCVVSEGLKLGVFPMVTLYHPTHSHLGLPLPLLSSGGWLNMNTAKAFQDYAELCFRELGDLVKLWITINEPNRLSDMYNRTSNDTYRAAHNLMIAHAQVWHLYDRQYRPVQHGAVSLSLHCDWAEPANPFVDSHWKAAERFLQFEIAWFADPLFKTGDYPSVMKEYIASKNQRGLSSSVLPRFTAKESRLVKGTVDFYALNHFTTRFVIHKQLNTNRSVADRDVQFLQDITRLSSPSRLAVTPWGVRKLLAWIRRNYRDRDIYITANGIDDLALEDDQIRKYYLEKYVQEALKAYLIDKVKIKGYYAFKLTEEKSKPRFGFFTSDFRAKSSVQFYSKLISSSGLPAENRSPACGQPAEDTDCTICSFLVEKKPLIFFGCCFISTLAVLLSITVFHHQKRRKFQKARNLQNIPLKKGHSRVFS

How the values were obtained:
[1] = target: human FGF19 (R23 to K216), FGF19^23-216 (human) (UniProt O95750); test: SPR, FGF19^23-216 immobilized, 15 nM FGFR1c-βKlotho complex injected
[2] = target: human FGF21 (H29 to S209), FGF21^29-209 (human) (UniProt Q9NSA1); test: SPR, FGF21^29-209 immobilized, 15 nM FGFR1c-βKlotho complex injected
[3] = target: human FGF19 (R23 to K216), FGF19^23-216 (human) (UniProt O95750); test: SPR; FGF19^23-216 immobilized, FGFR1c-βKlotho complex injected with FGF23^180-251 (10:1)
[4] = target: human FGF21 (H29 to S209), FGF21^29-209 (human) (UniProt Q9NSA1); test: SPR; FGF21^29-209 immobilized, FGFR1c-βKlotho complex injected with FGF23^180-251 (10:1)

Measured: binding

1:1 complex of the ectodomains of FGFR1c and βKlotho (from UniProt Q99N32 53-995) (receptor)
binds: [1] | [2] | [3] | [4]
